Measured values published in publication PMC6026378.
Results are given in words; binding and its absence hold for the method and conditions named. In cells and extracts the contact can be indirect. Binding calls can cover weak binding; strength is not graded here.

The chains behind the UniProt entries cited, without tags or fusion partners. Where a name states a change or a piece, a line headed by the entry shows the natural chain unless it says otherwise.
UniProt P13608: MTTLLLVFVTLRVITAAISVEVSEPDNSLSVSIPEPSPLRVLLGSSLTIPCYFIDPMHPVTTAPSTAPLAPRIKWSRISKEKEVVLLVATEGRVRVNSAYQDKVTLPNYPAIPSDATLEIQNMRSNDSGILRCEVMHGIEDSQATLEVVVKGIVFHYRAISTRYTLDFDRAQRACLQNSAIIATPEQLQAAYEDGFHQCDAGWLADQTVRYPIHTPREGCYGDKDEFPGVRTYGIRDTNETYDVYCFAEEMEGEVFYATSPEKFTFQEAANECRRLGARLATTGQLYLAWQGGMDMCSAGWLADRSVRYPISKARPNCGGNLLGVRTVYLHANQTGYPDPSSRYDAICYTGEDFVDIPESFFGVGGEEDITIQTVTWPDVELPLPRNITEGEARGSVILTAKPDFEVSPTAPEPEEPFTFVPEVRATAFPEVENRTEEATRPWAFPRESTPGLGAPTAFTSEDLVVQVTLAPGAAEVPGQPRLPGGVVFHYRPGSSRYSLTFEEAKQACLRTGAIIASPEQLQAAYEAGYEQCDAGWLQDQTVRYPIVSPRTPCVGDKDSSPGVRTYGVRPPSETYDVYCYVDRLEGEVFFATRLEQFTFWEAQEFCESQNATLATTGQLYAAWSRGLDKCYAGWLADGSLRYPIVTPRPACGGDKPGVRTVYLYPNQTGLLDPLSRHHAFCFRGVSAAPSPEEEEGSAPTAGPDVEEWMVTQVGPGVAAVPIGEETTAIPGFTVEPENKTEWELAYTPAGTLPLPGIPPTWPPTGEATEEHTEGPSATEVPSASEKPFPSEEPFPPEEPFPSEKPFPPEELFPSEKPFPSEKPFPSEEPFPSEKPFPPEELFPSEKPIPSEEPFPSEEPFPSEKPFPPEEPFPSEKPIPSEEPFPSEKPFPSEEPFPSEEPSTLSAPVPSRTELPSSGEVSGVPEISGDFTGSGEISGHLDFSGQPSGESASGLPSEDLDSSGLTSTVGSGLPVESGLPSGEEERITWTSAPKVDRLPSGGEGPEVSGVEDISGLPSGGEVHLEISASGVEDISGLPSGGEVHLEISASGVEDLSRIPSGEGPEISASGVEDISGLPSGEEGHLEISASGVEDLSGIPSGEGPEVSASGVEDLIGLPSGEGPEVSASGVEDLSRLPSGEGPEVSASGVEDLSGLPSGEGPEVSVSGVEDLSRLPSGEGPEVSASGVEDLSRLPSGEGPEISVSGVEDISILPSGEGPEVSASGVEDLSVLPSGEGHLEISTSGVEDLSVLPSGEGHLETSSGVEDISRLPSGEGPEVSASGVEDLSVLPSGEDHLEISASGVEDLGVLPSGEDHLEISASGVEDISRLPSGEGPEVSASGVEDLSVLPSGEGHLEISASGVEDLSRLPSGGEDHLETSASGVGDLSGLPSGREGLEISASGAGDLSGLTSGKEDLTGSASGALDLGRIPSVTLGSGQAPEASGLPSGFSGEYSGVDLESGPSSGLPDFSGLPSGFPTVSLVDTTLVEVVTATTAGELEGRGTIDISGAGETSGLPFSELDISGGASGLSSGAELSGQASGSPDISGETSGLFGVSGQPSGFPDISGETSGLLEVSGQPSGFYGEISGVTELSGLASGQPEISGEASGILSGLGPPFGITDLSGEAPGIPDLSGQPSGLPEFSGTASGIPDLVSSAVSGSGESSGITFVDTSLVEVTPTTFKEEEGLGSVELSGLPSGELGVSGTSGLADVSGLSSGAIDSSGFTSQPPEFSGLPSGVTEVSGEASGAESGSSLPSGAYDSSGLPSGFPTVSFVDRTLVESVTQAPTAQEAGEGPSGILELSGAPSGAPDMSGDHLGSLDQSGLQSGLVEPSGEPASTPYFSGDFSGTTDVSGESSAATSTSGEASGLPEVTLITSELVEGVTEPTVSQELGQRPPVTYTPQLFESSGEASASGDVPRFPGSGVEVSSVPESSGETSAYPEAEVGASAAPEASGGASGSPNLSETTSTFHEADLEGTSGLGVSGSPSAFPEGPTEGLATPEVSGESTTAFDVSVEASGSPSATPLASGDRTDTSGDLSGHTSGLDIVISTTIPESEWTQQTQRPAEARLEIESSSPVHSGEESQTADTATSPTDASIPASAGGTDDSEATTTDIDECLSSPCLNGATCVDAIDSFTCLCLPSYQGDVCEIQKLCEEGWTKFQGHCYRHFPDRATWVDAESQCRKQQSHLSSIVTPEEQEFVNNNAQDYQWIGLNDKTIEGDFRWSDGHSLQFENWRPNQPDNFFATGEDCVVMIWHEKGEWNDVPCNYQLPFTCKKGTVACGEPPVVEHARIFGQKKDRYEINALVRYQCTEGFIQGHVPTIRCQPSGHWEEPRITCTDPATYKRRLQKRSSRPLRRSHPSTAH

Target: aggrecan G1 domain (bovine (purified from bovine articular cartilage)) (UniProt P13608)
Experiment: co-purification from tissue; complex of AG1 and LP purified from bovine articular cartilage, as described previously (ref. 33)

binding: binds
B1: cartilage link protein (protein, UniProt P55252 16-354)
chain: DHHSDNYTVDHDRVIHIQAENGPRLLVEAEQAKVFSRRGGNVTLPCKFYRDPTAFGSGTHKIRIKWTKLTSDYLKEVDVFVSMGYHKKTYGGYHGRVFLKGGSDNDASLVITDLTLEDYGRYKCEVIEGLEDDTAVVALDLQGVVFPYFPRLGRYNLNFHEAQQACLDQDAVIASFDQLYDAWRSGLDWCNAGWLSDGSVQYPITKPREPCGGQNTVPGVRNYGFWDKDKSRYDVFCFTSNFNGRFYYLIHPTKLTYDEAVQACLNDGAQIAKVGQIFAAWKLLGYDRCDAGWLADGSVRYPISRPRRRCSPSEAAVRFVGFPDKKHKLYGVYCFRAYN
